# In paper PMC12040169 (PLOS Biology, 2025):
# Some of the results follow.
# System: T1, CTL2-GFP (C. trachomatis L2/434/Bu, GFP-expressing)
# T1 construct: L2/434/Bu, GFP-expressing
# Design: species or system HeLa; Intracellular C. trachomatis growth in HeLa cells, bulk GFP fluorescence relative to DMSO
# Conditions: bulk GFP, single well; 28.5 h, 10 µM; inhibitor
row,Structure (SMILES),% of control remaining
1,CCc1nnc(NCC2CCCCC2)s1 [CBK075044],103.099%
2,Cc1nn(Cc2ccc(C(=O)Nc3c(C)nn(Cc4ccc(Cl)c(Cl)c4)c3C)o2)c(C)c1Br [CBK265855],109.835%
3,C[S+]([O-])c1ccc(-c2ccc(CN(C3CC3)C3CCN(c4ncccn4)CC3)cn2)cc1 (centres unmarked) [CBK172877],112.538%
4,Nc1nc(OCCOc2ccccc2)cnc1-c1ccsc1 [CBK145163],100%
5,Cc1ccc(Nc2ncc(C(=O)NCCCN3CCN(c4cccc(Cl)c4)CC3)c3ccccc23)cc1Cl [CBK291251],30.0022%
6,CN1C[C@@H](NC(=O)c2ccc(C#N)cc2)C[C@H]1c1nc(-c2ccc(F)cc2)no1 [CBK288865],104.829%
7,O=c1[nH]c2cc(Cl)cc(Cl)c2o1 [CBK015711],116.026%
8,O=C(Cc1csc(-c2ccsc2)n1)Nc1nc2c(s1)CCC2 [CBK297935],106.254%
9,CCN(Cc1nccn1CC)[C@H]1CCO[C@@H](c2ccccc2-c2ccc(OC)cc2)C1 [CBK285852],95.1836%
10,CCc1[nH]nc2c1C(C1C=CCCC1)C(C#N)=C(N)O2 (centres unmarked) [CBK270236],108.033%
11,O=C(NCCOc1ccccc1)c1nn(-c2ncccn2)c2ccccc12 [CBK048494],157.735%
12,CC(C)(C)OC(=O)CN1C(=O)N[C@@H]2CCCC[C@@H]21 [CBK003423],125.226%
13,O=C(O)c1cccc(N2C(=O)C3C4C=CC(CO)(O4)C3C2=O)c1 (centres unmarked) [CBK287066],112.628%
14,COC(=O)c1c(NC(=O)CC2Nc3ccccc3NC2=O)sc2c1CCC(C(C)(C)C)C2 (centres unmarked) [CBK265614],89.68%
15,Cc1nn(Cc2ccc(F)cc2)c(C)c1NC(=O)c1cnn2c(C(F)(F)F)cc(-c3ccccc3)nc12 [CBK268231],121.781%
16,COc1ccc(Oc2nccnc2N2CCN(CC3CCCCC3)CC2)cc1OC [CBK083064T],106.587%
17,CCOC(=O)CN1CCC(Oc2nccnc2OCc2ccc(Cl)c(Cl)c2)CC1 [CBK083113T],110.048%
18,CCN1CCC[C@@H]1CNc1cc(NS(=O)(=O)c2cccs2)cc2ccoc12 [CBK067904C],93.5287%
19,O=C(CSc1nnc(SCc2cccc3ccccc23)s1)Nc1ccc(F)c(Cl)c1 [CBK267574],110.987%
20,Brc1ccc(/C=N\c2ccc3c(c2)ncn3CCn2cnc3cc(/N=C/c4ccc(Br)cc4)ccc32)cc1 [CBK262285],139.67%
21,CC(=O)c1ccc(-c2nc(NC(=O)c3ccccn3)cnc2-c2cccc(OC(F)(F)F)c2)s1 [CBK036929],141.518%
22,OCCCn1c(-c2ccc(Cl)cc2)cn2c3ccccc3nc12 [CBK262900],69.6176%
23,O=C(O)C1CCCN(C(=O)NCc2c(Cl)cccc2Cl)C1 (centres unmarked) [CBK161362],144.23%
24,COc1ccc([N+](=O)[O-])cc1NC(=O)CSc1nnnn1C [CBK268950],172.587%
25,CC(C)c1ccc(C(=O)NC2CCN(CC(F)(F)F)C2=O)nc1 (centres unmarked) [CBK304089],110.606%
26,O=C(Nc1ccccc1Cl)N1CCN(c2ccc(F)cc2)CC1 [CBK117849],88.4942%

# Grouped by structure: the compounds so far with a halogen
row,Structure (SMILES),% of control remaining
2,Cc1nn(Cc2ccc(C(=O)Nc3c(C)nn(Cc4ccc(Cl)c(Cl)c4)c3C)o2)c(C)c1Br [CBK265855],109.835%
5,Cc1ccc(Nc2ncc(C(=O)NCCCN3CCN(c4cccc(Cl)c4)CC3)c3ccccc23)cc1Cl [CBK291251],30.0022%
6,CN1C[C@@H](NC(=O)c2ccc(C#N)cc2)C[C@H]1c1nc(-c2ccc(F)cc2)no1 [CBK288865],104.829%
7,O=c1[nH]c2cc(Cl)cc(Cl)c2o1 [CBK015711],116.026%
15,Cc1nn(Cc2ccc(F)cc2)c(C)c1NC(=O)c1cnn2c(C(F)(F)F)cc(-c3ccccc3)nc12 [CBK268231],121.781%
17,CCOC(=O)CN1CCC(Oc2nccnc2OCc2ccc(Cl)c(Cl)c2)CC1 [CBK083113T],110.048%
19,O=C(CSc1nnc(SCc2cccc3ccccc23)s1)Nc1ccc(F)c(Cl)c1 [CBK267574],110.987%
20,Brc1ccc(/C=N\c2ccc3c(c2)ncn3CCn2cnc3cc(/N=C/c4ccc(Br)cc4)ccc32)cc1 [CBK262285],139.67%
21,CC(=O)c1ccc(-c2nc(NC(=O)c3ccccn3)cnc2-c2cccc(OC(F)(F)F)c2)s1 [CBK036929],141.518%
22,OCCCn1c(-c2ccc(Cl)cc2)cn2c3ccccc3nc12 [CBK262900],69.6176%
23,O=C(O)C1CCCN(C(=O)NCc2c(Cl)cccc2Cl)C1 (centres unmarked) [CBK161362],144.23%
25,CC(C)c1ccc(C(=O)NC2CCN(CC(F)(F)F)C2=O)nc1 (centres unmarked) [CBK304089],110.606%
26,O=C(Nc1ccccc1Cl)N1CCN(c2ccc(F)cc2)CC1 [CBK117849],88.4942%

# Further results follow.

row,Structure (SMILES),% of control remaining
1,O=C(Nc1ccc(Sc2ccc([N+](=O)[O-])cc2)cc1)c1ccc2c(c1)C(=O)N(c1ccccc1-c1ccccc1)C2=O [CBK261340],120.017%
2,c1ccc(N2CCN(c3nc4cc5c(cc4s3)OCO5)CC2)cc1 [CBK287495],121.017%
3,NC(=O)C[N+]1(CC#CC(O)(c2ccccc2)c2ccccc2)CCCC1 [CBK262703I],126.864%
4,CC(=O)Nc1cccc(C(=O)N2CCN(CC3CCCO3)CC2)c1 (centres unmarked) [CBK305158],200.112%
5,O=C(CCSc1ccc([N+](=O)[O-])cc1Cl)Nc1ccc(Br)c2cccnc12 [CBK266407],99.211%
6,COc1ccc2[nH]c3c(c2c1)CN(C(=O)CCC1CCCO1)CC3 (centres unmarked) [CBK281530],111.493%
7,Cc1cc(C)c2c(C)nn(-c3ccc(C(=O)O)cc3)c2n1 [CBK267480],128.724%
8,S=C(NCc1ccc(-n2cccn2)cc1)NCC1CCCO1 (centres unmarked) [CBK267083],164.484%
9,Cc1cc(O)nc(SCCCSc2ccccc2)n1 [CBK267415],106.822%
10,COc1ccc2[nH]cc(C3CCN(Cc4cc(C)no4)CC3)c2c1 [CBK303996],94.0002%
11,O=S(=O)(Nc1ccc(C(O)(C(F)(F)F)C(F)(F)F)cc1)c1cccc2cccnc12 [CBK062092],97.8112%
12,CC(C)N1CCC(C(=O)NC(=O)NCCc2ccc3c(c2)OCO3)CC1 [CBK034804],119.082%
13,Cn1cccc1CNCCc1ccc(S(N)(=O)=O)cc1 [CBK267831C],117.842%
14,COc1ccc(C)cc1S(=O)(=O)N1CCc2c(CN3CCN(C)CC3)cccc21 [CBK113628T],106.123%
15,Cn1ccnc1Sc1nc2ccccc2nc1N1CCCC1 [CBK093791],108.58%
16,Cc1ccc(NC(=O)c2cscn2)c(C)n1 [CBK200297],173.606%
17,CCc1nn(CC(=O)NC2CCC2)c(=O)c2cc3ccsc3n12 [CBK284136],85.7492%
18,Cc1nc(NCc2ccc(C(F)(F)F)cc2)nc(N2CCOCC2)n1 [CBK023863],100.078%
19,Cc1ccc(Cl)cc1-n1cc(-c2ccc(F)cc2)nn1 [CBK113128],128.474%
20,Cc1cc(NC(=O)c2cc(Br)cnc2NCc2cccnc2)n(C)n1 [CBK076358],119.413%
21,O=C(NCC1CCNCC1)c1ccncc1 [CBK267637C],115.438%
22,CCc1cccc2c(CC(=O)N(C)CCN(C)C)c(C)[nH]c12 [CBK282673],85.7081%
23,O=C(Cn1c(-c2cncs2)nc2ccccc21)NCc1ccc2c(c1)OCO2 [CBK264699],116.564%
24,CO/N=C(N)/C(N)=N/OC [CBK019780],122.929%
25,O=C(c1ccc(C#CC2(O)CCCCC2)cc1)N1CCC(C(O)(c2ccccc2)c2ccccc2)CC1 [CBK033758],58.5998%
26,Cc1csc(C(Cc2ccsc2)NC(=O)CN2CCCC2=O)n1 (centres unmarked) [CBK285046],146.025%

# 2 entries from above in another layout.
row	Structure (SMILES)	% of control remaining
11	O=S(=O)(Nc1ccc(C(O)(C(F)(F)F)C(F)(F)F)cc1)c1cccc2cccnc12 [CBK062092]	97.8112%
18	Cc1nc(NCc2ccc(C(F)(F)F)cc2)nc(N2CCOCC2)n1 [CBK023863]	100.078%

# Following part:

row,Structure (SMILES),% of control remaining
1,COc1ccc(C2NC(C(=O)O)CS2)cc1CN1CCOCC1 (centres unmarked) [CBK287132],119.956%
2,Cc1ccc(C2=NN(c3ccccc3)C(c3cn(CCC(=O)O)nc3-c3ccccc3)C2)cc1 (centres unmarked) [CBK296110],97.1958%
3,COc1ccc([C@@]23CC[C@@H](NC(=S)NC(C)=O)C[C@@H]2N(Cc2ccccc2)CC3)cc1OC [CBK025503T],66.3877%
4,Cc1ccc(S(=O)(=O)n2ccc3ccc(N4CCN(C)CC4)nc32)cc1 [CBK063327],98.9987%
5,CC(C)[C@@H](CO)Nc1cncc(-c2ccc(F)cc2F)n1 [CBK065875],180.162%
6,CNC(=O)c1cc(-c2cccc(C)c2)oc1C [CBK047432],136.411%
7,Nc1nnc(Sc2nc3ccccc3nc2C(F)(F)F)s1 [CBK093795],105.156%
8,O=C(c1ccc(F)cc1)C1CCN(Cc2cc(=O)[nH]c(=O)[nH]2)CC1 [CBK149132],101.8%
9,Cc1noc(C)c1CN(C)C(C)C(=O)Nc1nccs1 (centres unmarked) [CBK304826],86.9464%
10,COCCn1nnnc1C(c1cc2c(C)ccc(C)c2[nH]c1=O)N1CCN(C(=O)c2ccco2)CC1 (centres unmarked) [CBK111563],92.1946%
11,COCc1ccc(Nc2ccccc2S(=O)(=O)c2ccccc2)cc1OCC1CCN(C(=O)OC(C)(C)C)CC1 [CBK175577],134.551%
12,c1cc(-c2nnc3n2CCCCS3)ccn1 [CBK288543],122.482%
13,CC(C)n1ccnc1CNc1cccc(OCC(=O)N2CCCC2)c1 [CBK305377],102.995%
14,Nc1nc2n(n1)C(c1ccccc1)C1=C(CCCC1)N2 (centres unmarked) [CBK287949],128.071%
15,COc1ccc(Nc2cc(Cl)ccc2C(=O)NC(C)(C)CN2CCOCC2)cn1 [CBK107436],96.552%
16,COc1ccc(NC(=S)NC(=O)CN2C(=O)c3ccccc3C2=O)c([N+](=O)[O-])c1 [CBK267594],88.6143%
17,O=C(CN1CCCC1)NC1CCCc2c1cnn2-c1ccc(F)cc1 (centres unmarked) [CBK283930],132.408%
18,O=C(O)CC1SC(Nc2cc(C(F)(F)F)cc(C(F)(F)F)c2)=NC1=O (centres unmarked) [CBK059095],97.6388%
19,Clc1cncc(OC(c2ccccc2)C2CC2)n1 (centres unmarked) [CBK176042],147.469%
20,O=C(COc1ccc(-c2ccccc2)cc1)N1CCN(S(=O)(=O)c2ccccc2[N+](=O)[O-])CC1 [CBK264154],137.228%
21,COCC(C)NCc1ccccc1C (centres unmarked) [CBK027852],98.9381%
22,O=C(O)c1ccc(NS(=O)(=O)Cc2ccccc2[N+](=O)[O-])cc1 [CBK034054],106.854%
23,O=C(/C=C/c1ccc2c(c1)OCO2)N1CCN(C(=O)c2ccco2)CC1 [CBK144459],109.886%
24,Cn1ncc(C#N)c1NC(=O)C1CC(c2ccc(Cl)c(Cl)c2)=NO1 (centres unmarked) [CBK267478],123.81%
25,O=C(O)CCc1ccc(-c2cn3ccnc3c(Nc3ccc(Br)cc3)n2)cc1 [CBK038058],104.424%
